Experimental data published in patent publication US9422274B2, “Oxazolidinone derivatives and composition for preventing or treating hepatitis C containing the same” (KOREA INSTITUTE OF SCIENCE AND TECHNOLOGY, priority 2013, dated 2016).
Some of these results come from one statement about several compounds together.

Tested on: huh7 cell lines
Assay: Cytotoxicity test (ToxiLight cytotoxicity assay kit)
Assay type: cell-based
Settings: treated at 1 mM; huh7 cells, 72 hours

CC(=O)N1CCC[C@H]1c1ncc(-c2ccc(-c3ccc(N4C[C@H](Cn5ccnn5)OC4=O)cc3F)cc2)[nH]1 [Example 2, (R)-5-((1H-1,2,3-Triazol-1-yl)methyl)-3-(4′-(2-((S)-1-acetylpyrrolidin-2-yl)-1H-imidazol-5-yl)-2-fluoro-[1,1′-biphenyl]-4-yl)oxazolidin-2-one]
cytotoxicity: did not show the cytotoxicity
